Measured values reported in patent US12485161B2, “Compositions comprising sulforaphane or a sulforaphane precursor and a milk thistle extract or powder” (Nutramax Laboratories, Inc., priority 2012, dated 2025).

Test system: broccoli sprout-derived myrosinase
Experiment: Consumption of glucoraphanin by myrosinase as a function of the ascorbic acid concentration (Example 3)
Assay type: biochemical
Conditions: 38° C.

SMILES: C[S+]([O-])CCCC/C(=N\OS(=O)(=O)O)S[C@@H]1O[C@H](CO)[C@@H](O)[C@H](O)[C@H]1O (stereo partly drawn) [GR, 1-S-[(1E)-5-(methylsulfinyl)-N-(sulfonatooxy)pentanimidoyl]-1-thio-β-D-glucopyranose]
- Glucoraphanin content (ascorbic acid 0 μM, time 0 min): 93.36 µmol
- Glucoraphanin content (ascorbic acid 0 μM, time 15 min): 92.24 µmol
- Glucoraphanin content (ascorbic acid 0 μM, time 30 min): 90.71 µmol
- Glucoraphanin content (ascorbic acid 0 μM, time 45 min): 89.44 µmol
- Glucoraphanin content (ascorbic acid 0 μM, time 60 min): 87.79 µmol
- Glucoraphanin content (ascorbic acid 50 μM, time 0 min): 93.36 µmol
- Glucoraphanin content (ascorbic acid 50 μM, time 15 min): 89.20 µmol
- Glucoraphanin content (ascorbic acid 50 μM, time 30 min): 84.24 µmol
- Glucoraphanin content (ascorbic acid 50 μM, time 45 min): 80.30 µmol
- Glucoraphanin content (ascorbic acid 50 μM, time 60 min): 76.36 µmol
- Glucoraphanin content (ascorbic acid 125 μM, time 0 min): 93.36 µmol
- Glucoraphanin content (ascorbic acid 125 μM, time 15 min): 84.52 µmol
- Glucoraphanin content (ascorbic acid 125 μM, time 30 min): 75.92 µmol
- Glucoraphanin content (ascorbic acid 125 μM, time 45 min): 68.09 µmol
- Glucoraphanin content (ascorbic acid 125 μM, time 60 min): 59.41 µmol
- Glucoraphanin content (ascorbic acid 250 μM Filtered, time 0 min): 93.36 µmol
- Glucoraphanin content (ascorbic acid 250 μM Filtered, time 15 min): 86.31 µmol
- Glucoraphanin content (ascorbic acid 250 μM Filtered, time 30 min): 79.44 µmol
- Glucoraphanin content (ascorbic acid 250 μM Filtered, time 45 min): 71.94 µmol
- Glucoraphanin content (ascorbic acid 250 μM Filtered, time 60 min): 65.18 µmol
- Glucoraphanin content (ascorbic acid 250 μM, time 0 min): 93.36 µmol
- Glucoraphanin content (ascorbic acid 250 μM, time 15 min): 80.95 µmol
- Glucoraphanin content (ascorbic acid 250 μM, time 30 min): 69.06 µmol
- Glucoraphanin content (ascorbic acid 250 μM, time 45 min): 57.63 µmol
- Glucoraphanin content (ascorbic acid 250 μM, time 60 min): 45.76 µmol
- Glucoraphanin content (ascorbic acid 400 μM, time 0 min): 93.36 µmol
- Glucoraphanin content (ascorbic acid 400 μM, time 15 min): 78.32 µmol
- Glucoraphanin content (ascorbic acid 400 μM, time 30 min): 62.78 µmol
- Glucoraphanin content (ascorbic acid 400 μM, time 45 min): 47.67 µmol
- Glucoraphanin content (ascorbic acid 400 μM, time 60 min): 33.15 µmol
- Glucoraphanin content (ascorbic acid 600 μM, time 0 min): 93.36 µmol
- Glucoraphanin content (ascorbic acid 600 μM, time 15 min): 75.02 µmol
- Glucoraphanin content (ascorbic acid 600 μM, time 30 min): 55.66 µmol
- Glucoraphanin content (ascorbic acid 600 μM, time 45 min): 37.50 µmol
- Glucoraphanin content (ascorbic acid 600 μM, time 60 min): 22.09 µmol
